Results are given in words; binding and its absence hold for the method and conditions named. Binding seen in cells or lysates may run through a third protein. Some binding calls cover weakened binding; strength is not graded here. Sequences can lack the tags named with a protein.
Target: T1, His10-σ32 T52C (E. coli) (UniProt P0AGB3)
T1 sequence: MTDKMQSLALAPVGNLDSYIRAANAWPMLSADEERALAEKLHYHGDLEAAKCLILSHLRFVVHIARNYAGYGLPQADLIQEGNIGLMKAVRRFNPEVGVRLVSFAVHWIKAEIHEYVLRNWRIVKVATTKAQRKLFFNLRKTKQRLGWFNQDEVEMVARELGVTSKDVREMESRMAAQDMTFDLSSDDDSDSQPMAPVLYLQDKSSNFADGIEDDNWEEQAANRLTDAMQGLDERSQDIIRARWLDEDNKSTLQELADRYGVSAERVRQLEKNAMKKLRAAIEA
Experiment: cross-linking; in vivo disulfide cross-linking: cells with His10-σ32 (Cys) and single-Cys Ffh treated with 50 μM Cu2+(phenanthroline)3 at 37 °C for 5 min, quenched, TALON isolation, SDS-PAGE with or without 2-mercaptoethanol, anti-Ffh immunoblotting

B1: Ffh M376C (single-Cys derivative of Cys-less Ffh C406S) (protein, UniProt P0AGD7 1-453)
chain: MFDNLTDRLSRTLRNISGRGRLTEDNVKDTLREVRMALLEADVALPVVREFINRVKEKAVGHEVNKSLTPGQEFVKIVRNELVAAMGEENQTLNLAAQPPAVVLMAGLQGAGKTTSVGKLGKFLREKHKKKVLVVSADVYRPAAIKQLETLAEQVGVDFFPSDVGQKPVDIVNAALKEAKLKFYDVLLVDTAGRLHVDEAMMDEIKQVHASINPVETLFVVDAMTGQDAANTAKAFNEALPLTGVVLTKVDGDARGGAALSIRHITGKPIKFLGVGEKTEALEPFHPDRIASRILGMGDVLSLIEDIESKVDRAQAEKLASKLKKGDGFDLNDFLEQLRQMKNMGGMASLMGKLPGMGQIPDNVKSQMDDKVLVRCEAIINSMTMKERAKPEIIKGSRKRRIAAGSGMQVQDVNRLLKQFDDMQRMMKKMKKGGMAKMMRSMKGMMPPGFPGR
In the case of B1, the binding is reported as “binds”.

From article PMC4823717
